# Reference: PubChem BioAssay AID720504 (National Center for Advancing Translational Sciences (NCATS), 2013)
# Protein sequences, listed by entry. Tags and fused reporters are not part of them.
# UniProt P53350, whole entry, looked up: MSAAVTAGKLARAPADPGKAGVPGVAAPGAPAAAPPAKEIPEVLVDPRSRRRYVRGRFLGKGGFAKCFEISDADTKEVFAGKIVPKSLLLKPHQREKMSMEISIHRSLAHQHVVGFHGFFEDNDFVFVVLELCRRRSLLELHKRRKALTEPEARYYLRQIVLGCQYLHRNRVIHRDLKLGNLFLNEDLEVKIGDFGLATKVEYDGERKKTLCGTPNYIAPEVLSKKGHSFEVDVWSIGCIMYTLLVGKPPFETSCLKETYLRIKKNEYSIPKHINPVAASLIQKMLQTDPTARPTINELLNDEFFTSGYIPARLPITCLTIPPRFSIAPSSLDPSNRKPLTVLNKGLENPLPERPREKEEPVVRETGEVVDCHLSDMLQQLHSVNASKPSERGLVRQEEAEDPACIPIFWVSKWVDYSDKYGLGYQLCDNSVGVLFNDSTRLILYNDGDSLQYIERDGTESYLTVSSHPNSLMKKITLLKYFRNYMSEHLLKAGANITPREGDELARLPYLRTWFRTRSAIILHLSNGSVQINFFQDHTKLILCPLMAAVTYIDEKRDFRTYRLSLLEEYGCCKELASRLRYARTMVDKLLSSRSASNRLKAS
# Hit rate of the full screen: of about 360,000 compounds, about 10,000 (2.8%) were called active. The shares of active, inactive and inconclusive entries below differ from those in the screen. The call rests on the fitted dose curve; in most records, active means well fitted inhibition curve with a large enough effect; inconclusive means small, poorly fitted or top-dose-only effect; inactive means flat fitted curve, though single readings scatter. Potencies beside an inconclusive call are fits to weak or partial responses and may not hold up.
# Molecular target: Serine/threonine-protein kinase PLK1 (Homo sapiens) (UniProt P53350)
# Test: qHTS for Inhibitors of PLK1-PDB (polo-like kinase 1 - polo-box domain): Primary Screen; further: nearly all actives have a fitted effect of over 65% in size; on max response, negative = inhibition: series mostly up to about 57 µM
# Details: Plk1 PBD binding of FITC phosphopeptide, fluorescence polarization
# On the % scale 0 is the no-effect control and ±100 the full control effect; potency means the concentration at half of the fitted maximal effect.
SMILES,"max response, negative = inhibition",Potency
CCOC(=O)C1CCCN(S(=O)(=O)c2ccc(OC)cc2)C1 (stereo not given),inactive: -1.2%,–
CCCC1(C(=O)OC)NC(c2ccco2)C2C(=O)N(C)C(=O)C21 (stereo not given),–,"inconclusive: 26.7 µM [inhibitor, partial curve]"
COc1ccc(CN2C(=O)c3cccnc3C2Nc2ccc(C)cc2)cc1 (stereo not given),–,"inconclusive: 26.7 µM [inhibitor, partial curve]"
CC(=O)Nc1ccc(S(=O)(=O)NC(C)C(=O)NC(C)c2ccccc2)cc1 (stereo not given),–,active: 11.9 µM
CCN(CC)/C(=N\S(=O)(=O)c1ccc(F)cc1)c1ccccc1,inconclusive: -14.4% [inhibitor],–
CN1CC=C2C(C#N)=C(N)C(C#N)(C#N)C(c3cccc(Cl)c3Cl)C2C1 (stereo not given),–,"inconclusive: 26.7 µM [inhibitor, partial curve]"
CCC(=O)Nc1nc(N)n(-c2ccccc2)n1,inactive: -0.949%,–
CCOC(=O)N1CCN(C(=O)c2ccc3c(c2)sc2nc(-c4ccc(OC)cc4)cn23)CC1,inactive: -3.01%,–
CC(C)COc1ccc(C(=O)Nc2sc3c(c2C(=O)O)CC(C)(C)OC3)cc1,–,"inconclusive: 21.2 µM [inhibitor, single point]"
CC(C)C(=O)NC(=S)Nc1ccc(S(=O)(=O)Nc2nccs2)cc1,–,"inconclusive: 23.8 µM [inhibitor, single point]"
Cc1nc(Nc2ccc(S(N)(=O)=O)cc2)oc1C,–,"inconclusive: 29.9 µM [inhibitor, partial curve]"
COc1cc(C(c2c(C)[nH][nH]c2=O)c2c(C)[nH][nH]c2=O)ccc1OC(=O)c1cccc([N+](=O)[O-])c1,–,"inconclusive: 18.9 µM [inhibitor, partial curve]"
Cc1ccc2[nH]c(=S)cc(C)c2c1,–,active: 5.97 µM
CCCCNC(=S)Nc1ccc(Oc2ccccc2)cc1,–,"inconclusive: 33.6 µM [inhibitor, partial curve]"
O=C(O)C1=NN(c2cc(Cl)c(S(=O)(=O)O)cc2Cl)C(=O)C1,–,"inconclusive: 33.6 µM [inhibitor, partial curve]"
CCCCCn1c(CNC(C)=O)nc2ccccc21,–,"inconclusive: 23.8 µM [inhibitor, single point]"
COc1ccccc1CC(=O)O/N=C(\N)c1cccc([N+](=O)[O-])c1,–,"inconclusive: 13.4 µM [inhibitor, partial curve]"
CSc1ccc(NC(=O)CSc2nc3[nH]c(=O)cc(O)c3s2)cc1,–,"inconclusive: 26.7 µM [inhibitor, partial curve]"
CCOc1ccccc1NC(=O)C(=O)/C=C(\O)c1cc(OC)ccc1OC,–,active: 21.2 µM
Cc1coc2cc3oc(=O)ccc3cc12,inactive: -3.24%,–
Cc1cc(Br)cn2c(Cc3cccc(F)c3)c(C3CCCCC3)nc12,inactive: -5.04%,–
CCCn1c(=O)c2ccccc2n2c(SCC(=O)NCc3cccs3)nnc12,–,active: 26.7 µM
S=C(NCc1ccccc1)N1CCN(c2cccc(Cl)c2)CC1,–,"inconclusive: 42.3 µM [inhibitor, partial curve]"

SMILES,"max response, negative = inhibition",Potency
CCSc1nnc(NC(=O)[C@@H](NC(=O)c2ccccc2F)C(C)C)s1,–,"inconclusive: 8.44 µM [inhibitor, single point]"
Cc1ccc(Cl)cc1N(CC(=O)NC(C)c1ccccc1)S(C)(=O)=O (stereo not given),–,"inconclusive: 21.2 µM [inhibitor, single point]"
C[C@H]1CN([C@@H](C)CO)C(=O)CCCn2cc(nn2)CO[C@@H]1CN(C)S(C)(=O)=O,inconclusive: -38.8% [inhibitor],–
Cc1cc(C)c2c(CCl)cc(=O)oc2c1,–,"inconclusive: 15 µM [inhibitor, partial curve]"
CCn1cc(C(=O)NCc2cccc(F)c2)c(=O)c2cc(F)c(N3CCN(C(=O)c4ccco4)CC3)cc21,inactive: -13.4%,–
COc1ccc(OC)c(/C=C2\N=C(c3ccccc3)OC2=O)c1,–,active: 11.9 µM
Cc1c(NC(=O)CCC2CCCCC2)cc(C(=O)N2CCOCC2)cc1[N+](=O)[O-],–,"inconclusive: 37.7 µM [inhibitor, partial curve]"
CC(=O)c1ccc(-n2nnnc2SCC(=O)NC2CCCCC2)cc1,–,"inconclusive: 23.8 µM [inhibitor, partial curve]"
C[C@@H](C(=O)Nc1ccc2ccccc2c1)[C@@H]1C[C@@]1(C)[C@@H](NC(=O)c1cnccn1)c1ccccc1,–,"inconclusive: 29.9 µM [inhibitor, single point]"
O=C(O)c1ccc(N/N=C/c2cn(Cc3ccc(F)cc3)c3ccccc23)cc1,–,active: 23.8 µM
COc1cc(CC(=O)OCC(=O)Nc2cccc([N+](=O)[O-])c2)cc(OC)c1OC,inactive: -12.8%,–
Cc1cc(NCCO)c2cc(O)ccc2n1,inactive: -5.28%,–
COc1ccccc1NC(=S)N(Cc1ccccc1)Cc1cccs1,inactive: -4.83%,–
O=C(COC(=O)c1c2c(nc3ccccc13)/C(=C\c1ccco1)CC2)NC1CCCC1,–,active: 9.47 µM
CCCCC1=CC2=C(c3ccco3)C(=O)C(C)(OC(=O)c3ccc(OC)cc3)C(=O)C2=CN1Cc1ccco1 (stereo not given),–,"inconclusive: 37.7 µM [inhibitor, single point]"
CN(C)S(=O)(=O)Nc1cc(Cl)cc(Cl)c1,–,active: 29.9 µM
C[C@@H]1CCCCO[C@H](CN(C)C(=O)C2CCCCC2)[C@@H](C)CN([C@H](C)CO)C(=O)c2cc(N(C)C)ccc2O1,inconclusive: -31.8% [inhibitor],–
CC(C)S(=O)(=O)C1=NSC2=NC(=O)/C(=C\c3ccc(OC(=O)c4ccco4)cc3)C(=N)N21,–,"inconclusive: 21.2 µM [inhibitor, partial curve]"
COc1ccc2c(-c3ccccc3)cc(N3CCOCC3)nc2c1,inactive: -4.89%,–
Cc1ccccc1CN1CCC(n2nccc2NC(=O)CCOc2ccccc2)CC1,inactive: -14.4%,–
Cc1ccc(S(=O)(=O)N2CCC[C@H]2C(=O)OCC(=O)c2ccc3c(c2)NC(=O)CO3)cc1,–,active: 26.7 µM
Cc1cc(Br)cn2c(Cc3ccccc3)c(-c3ccc(C#N)cc3)nc12,inactive: -15.3%,–

# Single values from the list.
# `CC(C)COc1ccc(C(=O)Nc2sc3c(c2C(=O)O)CC(C)(C)OC3)cc1` | Potency: inconclusive: 21.2 µM [inhibitor, single point]
# `CN1CC=C2C(C#N)=C(N)C(C#N)(C#N)C(c3cccc(Cl)c3Cl)C2C1` (stereo not given) | Potency: inconclusive: 26.7 µM [inhibitor, partial curve]
# `Cc1c(NC(=O)CCC2CCCCC2)cc(C(=O)N2CCOCC2)cc1[N+](=O)[O-]` | Potency: inconclusive: 37.7 µM [inhibitor, partial curve]
